Laboratory results as given in the supplement of paper PMC3334620.
The full ranking holds about 33,000 sequences; the median of “E-score (-0.5 to 0.5)” is about -8e-05, and the highest 2% start at about 0.23. Some of the results follow.

Molecular target: T1, Nrg2 (UniProt P38082)
T1 sequence: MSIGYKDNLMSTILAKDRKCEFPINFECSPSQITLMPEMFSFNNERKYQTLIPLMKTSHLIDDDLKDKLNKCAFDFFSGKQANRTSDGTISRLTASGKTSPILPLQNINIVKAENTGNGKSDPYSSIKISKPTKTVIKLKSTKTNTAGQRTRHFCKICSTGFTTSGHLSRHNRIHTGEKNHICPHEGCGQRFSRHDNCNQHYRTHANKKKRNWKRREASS
Assay: PBM E-score (8-mer binding enrichment) (E-score (-0.5 to 0.5)); higher = stronger / more preferred TF binding
Details: protein concentration: 100 nM; construct: GST-full length
In short: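 For each ungapped eight-base word taken together with its reverse complement, the Universal PBM Analysis Suite assigned an E-score. Binding data came from GST-tagged yeast transcription factors, applied at about 100-200 nM, on universal all-10-mer Agilent arrays made double-stranded by primer extension. Fluorescent anti-GST marked bound protein, and scans were normalised with masliner.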

In order of rising “PBM E-score” value:
1. CCCCCACG  -0.338
2. CTTCCTGC  -0.267
3. ACTGAGGG  -0.265
4. CTATGGAG  -0.253
5. CTAGACGA  -0.226
6. CGGTCCAA  -0.224
7. CTATAACC  -0.218
8. CAGTCACC  -0.216
9. CGTCTCTA  -0.209
10. ACTGCGCC  -0.2
11. AGACTGCG  -0.192
12. CCGGTGAC  -0.192
13. GACCAGTC  -0.19
14. CCAGCTCC  -0.189
15. ATCGCACC  -0.187
16. AAAAAACT  -0.183
17. ACACCGGG  -0.175
18. TTCTAAAA  -0.173
19. ACATCGGA  -0.154
20. AGGTATGG  -0.153
21. AGTCGTCC  -0.152
22. CTATCATC  -0.151
23. AGCAATGG  -0.149
24. AAGGTTCC  -0.145
25. ACGCTGCT  -0.144
26. CCATAAGG  -0.143
27. AACCGTCA  -0.14
28. ATGTCTAC  -0.14
29. AGAGCACG  -0.14
30. CGCTAGCA  -0.136
31. ACTTTAGC  -0.132
32. ATAGGAAG  -0.127
33. GCTTCTAC  -0.123
34. GGAGGAGA  -0.119
35. ATCTGCCC  -0.118
36. AGCCTGTG  -0.118
37. CAGGCTGC  -0.116
38. ATAGTTTA  -0.114
39. GCGTGCAC  -0.114
40. AAACTTAG  -0.113
41. ACGGGTCT  -0.109
42. AATCGTTA  -0.104
43. CCGCCACG  -0.104
44. CCCCTAAA  -0.0979
45. CCTCCCAA  -0.094
46. CGAATAGC  -0.0913
47. CATCGCTC  -0.0896
48. TTGTCAAA  -0.0847
49. GACCTAGA  -0.0801
50. CATAACGG  -0.0744
51. AAGTAAAG  -0.074
52. ATGGAAGC  -0.0711
53. CCATGCGG  -0.0705
54. ATGTCGGG  -0.0685
55. GCTTGAGA  -0.0677
56. ACACCGGC  -0.0672
57. AGACTGGG  -0.0672
58. CTCCAAAG  -0.0656
59. AGGGGAAC  -0.0636
60. GTTAAAAC  -0.063
61. GAAGGGCA  -0.0565
62. TACTCTGA  -0.0551
63. CTGGCGAC  -0.0538
64. ACTGCCAC  -0.0513
65. GACTTTAA  -0.0502
66. TGGCTGAA  -0.0484
67. ACCTTGTG  -0.0454
68. CGTCCTAA  -0.0452
69. CAGTGCTA  -0.0422
70. GGCGCTGA  -0.04
71. ATGGTGAG  -0.0343
72. ACTATGGG  -0.0318
73. CCTTCAAA  -0.027
74. AAGCATAC  -0.0237
75. ATATGCCC  -0.0229
76. CTCCGATA  -0.0226
77. TAACGGTA  -0.0223
78. CCAAGTGA  -0.0202
79. ACAACTTA  -0.0192
80. CATGGAGA  -0.019
81. CATACAGG  -0.0183
82. GATAAGGA  -0.017
83. CACCGTTC  -0.0167
84. GCTTTCCA  -0.0167
85. AGTTGTAA  -0.0166
86. CCGATAAC  -0.0105
87. CCTACTCG  -0.00961
88. AGTACGGC  -0.00767
89. ACGTCGCT  -0.00568
90. ACATGTCG  -0.0034
91. CCATCTAA  0.00279
92. ATGGAACC  0.00551
93. AAATTAAG  0.00872
94. ATAATGCC  0.00967
95. CGGAAAGC  0.0105
96. GTCATGCA  0.0135
97. AAGTTTAC  0.0165
98. TATTCTGA  0.018
99. AACACTAA  0.0197
100. CGTGATCA  0.0201
101. GAACTAGA  0.0203
102. CTTGAATA  0.0214
103. GGAGCATA  0.0218
104. ATGCCAGG  0.0222
105. GGAATCAC  0.0314
106. AAAATACA  0.0321
107. TAAGGTCA  0.0329
108. ATACCTAC  0.035
109. ATTAGGAG  0.0389
110. AATCGGCG  0.0404
111. GGCGGTAA  0.0411
112. CAGATCGA  0.0435
113. CACTGCAA  0.0476
114. AAGATGCC  0.0488
115. ACTAGCAC  0.0506
116. AGACAGGG  0.0548
117. CAAATTGC  0.0549
118. ATAAAGCA  0.0557
119. GGCGTACC  0.059
120. AGGACAGA  0.0623
121. ATATGCTA  0.0653
122. AACCTTCG  0.0698
123. CCAGGAGA  0.0741
124. AAGTAGCA  0.075
125. AGGATTTC  0.0761
126. ACTCGAAC  0.0772
127. CCTGATAA  0.0785
128. CCTAACAA  0.0801
129. CAGACATC  0.0838
130. TACTTTGA  0.0852
131. CACTGCCG  0.102
132. GAATTGCA  0.105
133. AGGAACTA  0.105
134. TCCACGGA  0.107
135. AATCACGT  0.116
136. GATGACCC  0.118
137. GGATCGCA  0.128
138. CGCCCGGA  0.13
139. AGATGTAA  0.134
140. GATACATC  0.134
141. TAGGTAGA  0.136
142. AACAACTG  0.136
143. ATCATGGC  0.137
144. GTACTCAC  0.138
145. ATTCCCAG  0.138
146. GTCCGTTA  0.138
147. GTTTTGAA  0.14
148. AGTTATTA  0.144
149. CATAAACC  0.147
150. AGGCCGAG  0.148
151. GCAAATAA  0.149
152. GTTTTCAA  0.152
153. GGGTCCGA  0.153
154. GGTTTTCA  0.153
155. CCTGTCAG  0.153
156. GCACGAAC  0.161
157. ACAGTGAT  0.169
158. ATAACAAA  0.17
159. CCCCTGAG  0.176
160. ATCTCTAC  0.176
161. ACTTGGTC  0.179
162. AATGCGGG  0.181
163. ATGTTGGA  0.184
164. ATTTTATA  0.188
165. CGCGTTAC  0.193
166. GTATTAAA  0.196
167. CATTTCCC  0.201
168. CATAGATA  0.204
169. TTCGCGAA  0.22
170. TCGATACA  0.243
171. GGAAATGA  0.25
172. ATATCAAG  0.285
